Laboratory results from PubChem BioAssay AID1347426 (Functional Genomics Laboratory (NCATS/FGL), 2020).
Hit rate of the full screen: of about 31,000 sequences, about 1,400 (4.5%) were called active.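 How the source made its calls: active means median seed-adjusted z-score above 1 or below -1; inactive means the rest.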 The list shows a part of the results.

Test: Novel Modifiers of Survival Motor Neuron (SMN) Protein: Gene Identification via Genome-wide siRNA Screen;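 further: luminescence tracks full-length SMN protein made from the SMN2 reporter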
Conditions: HEK293T SMN2-luciferase reporter, siRNA knockdown, 72 h; actives lie on both sides
How it was run: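 HEK293T cells stably expressing an SMN2 splicing/cDNA-luciferase reporter were reverse-transfected with a druggable-genome siRNA library and read by luminescence at 72 hours; hits defined by MAD score above 1.0 or below -1.0.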

| Sequence | median seed-adjusted z-score |
| --- | --- |
| CCAUCGACCUUAAUACUUUTT against GALNT6 | inactive: -0.287 |
| GCAAGUGAAUAUGCGGAUATT against SNRPE | active: -2.77 |
| CACCUCCAGUAAGACCUUATT against ZNF625 | inactive: -0.0711 |
| UGGUUUACAUGUUCCAAUATT against GAPDH | inactive: 0.479 |
| GAGUCAUCAUGAGUGUCAATT against ACADS | inactive: 0.121 |
| CCACGAACUUGAAUCAAUUTT against NEK11 | inactive: 0.181 |
| GGUGUUCGGAAAAUAGUAATT against DHX36 | inactive: 0.165 |
| CCAUGUGAUUAUGUACUCATT against ELOVL4 | inactive: 0.166 |
| GGGUGAAACUAGAAUUCGATT against SPINK5 | inactive: 0.26 |
| CGUGUAUUUUCUAACUAUUTT against FHL5 | inactive: 0.0859 |
| CAAUAAAUCGUGACAAUGGTT against PCDHGC3 | inactive: 0 |
| CCCUAGCAUUAAGAAACAATT against FOXR2 | inactive: 0.593 |
| CAUAGGAGAUUCAAUUAUATT against NAT1 | inactive: -0.0665 |
| GGAGUAUUUCGAGAAGCAUTT against RHOBTB2 | inactive: -0.139 |
| GCAGUUCGCUUGUAUCGUATT against OGT | inactive: 0.411 |
| CGUCAGCUGUUUGUCCCAUTT against FLAD1 | inactive: 0.367 |
| CCCUCCAUGGAAUAGAAUATT against FCER1A | inactive: -0.0293 |
| GGAGAUCUAUUACCAUGGATT against ARRB1 | inactive: -0.205 |
| GGAAGAAGAUCAUAGAGAATT against TRPV4 | inactive: -0.73 |
| GAAAGAGUACGAGAAUCUATT against TRAIP | inactive: -0.018 |
| AGACAGACUCGAAACAGAATT against WDR31 | inactive: 0.796 |
| GGACGAGACCUACCGAAAATT against LSM11 | inactive: -0.873 |

4 entries from above, with each value named.
GAGUCAUCAUGAGUGUCAATT against ACADS
  median seed-adjusted z-score: inactive: 0.121
GGUGUUCGGAAAAUAGUAATT against DHX36
  median seed-adjusted z-score: inactive: 0.165
CAUAGGAGAUUCAAUUAUATT against NAT1
  median seed-adjusted z-score: inactive: -0.0665
GAAAGAGUACGAGAAUCUATT against TRAIP
  median seed-adjusted z-score: inactive: -0.018

Next results.

| Sequence | median seed-adjusted z-score |
| --- | --- |
| CGUACAAAGAUGACGCGGATT against SYNJ2 | inactive: 0.0202 |
| GAAGGAAGAGUAUCAAAAATT against CA12 | inactive: -0.0119 |
| AGAUUUCGCAGUUCAGGAATT against COQ7 | inactive: 0.159 |
| CGAUCAACUCCUUAAAGGATT against FLRT2 | inactive: -0.00573 |
| CGAGGCUCAUCAUAUCUCATT against RAVER2 | inactive: -0.258 |
| AACUGAAAUCGGUAAAGGATT against XRCC3 | inactive: 0.332 |
| CCAGGACACUAGAGCAAGATT against DNAJC17 | inactive: 0.751 |
| GGUACUUCAUAGAUUGGAATT against CDH12 | inactive: -0.0663 |
| AGGUGAUCAUGGAUCGUCATT against TRIM63 | inactive: -0.376 |
| GCAUCGAGAUCCACGAAGATT against PITPNM3 | inactive: -0.0378 |
| CUGAAAAAGUGUUAGAUGATT against HTATSF1 | inactive: -0.411 |
| GAAAUGAAAUUGGAGAUUATT against PCDHGC3 | inactive: 0 |
| CCAGCUCUUCCAUACAAUATT against RAB9A | inactive: 0.247 |
| ACUUUGUACUUUUGCCCAATT against TLX3 | inactive: 0.0771 |
| CCGCUGGUGUACUACUUUATT against LPAR5 | inactive: 0.0711 |
| GCACCUUCCGCGUCAUGUUTT against BTBD2 | inactive: 0.0303 |
| GAGUGGACUGGGCAAAUCATT against 3-Sep | inactive: 0.0683 |
| GCUUCACCAUCGAAUCCAATT against FLT4 | inactive: -0.861 |
| CCGCUGCAAGGGUAGUAUATT against CDK9 | inactive: 0.901 |
| GGAUGAUGUUUGUGCGCAATT against PRDM4 | inactive: 0.0804 |
| GCAUAUAACCAAAGGCGGATT against HSD17B4 | inactive: 0 |
| GCAUAUCCUACUUACCCAATT against DAZL | inactive: -0.441 |

| Sequence | median seed-adjusted z-score |
| --- | --- |
| CGAGGACGUGGGUCAGAAATT against ITPKA | inactive: -0.136 |
| GGAUGUGAUUGAGCAGUAUTT against KCNQ3 | inactive: 0.313 |
| GGCUGAUUCUGGAAGUUCUTT against SPP1 | inactive: -0.293 |
| GCAGCAAGCUCUGUCCCAATT against PEF1 | inactive: 0.651 |
| CCGUACAAUUGUAAAGAAUTT against ZNF230 | inactive: -0.203 |
| GGCAGAUCCUGACCUUUGATT against PRMT7 | inactive: 0.204 |
| GGACAACUAUGGUAAGAAATT against TCF7L1 | inactive: -0.251 |
| GCAUGGUCUUUCUACUUGUTT against TUBB2A | active: 1.03 |
| GCACAAUAAGAUCCUAUAUTT against B3GNT1 | inactive: 0.0931 |
| GGGCUUGUCUUCAAUGUUATT against SLCO1B1 | inactive: 0.127 |
| AGGAGAACAUGAUCGUGUATT against NADK | inactive: -0.201 |
| GUACGAGUGUUCUCCAGAATT against CREB3L3 | inactive: -0.076 |
| GCAUGUGCUUUAAACACCATT against TRIM52 | inactive: 0.00966 |
| GUCAGUUACAGAUUACCUATT against MTMR7 | inactive: -0.207 |
| CAUCCGUUCCAUACAUGUATT against AEBP2 | inactive: -0.212 |
| GCAUGUCCCUCAAGGUGCATT against ZBTB47 | inactive: 0 |
| GGUUCGAGCAGCUCAAGAATT against GLI2 | inactive: -0.796 |
| UGGAAGAACAUGAAUAUAATT against ACSM2A | inactive: -0.178 |
| GAGUCGCAUUUCAAUUAGATT against PDK1 | inactive: -0.00904 |
| CAUUUAAACCGAAACUCUATT against RBBP5 | inactive: 0.169 |
| GCAACAUGAUGAGUAAAGATT against PANK1 | inactive: -0.329 |
| GGCCUCGCAUUGUAUAUGATT against LRRK1 | inactive: 0.257 |

Looked up above:
In median seed-adjusted z-score, CACCUCCAGUAAGACCUUATT against ZNF625 reads inactive: -0.0711
In median seed-adjusted z-score, GCACCUUCCGCGUCAUGUUTT against BTBD2 reads inactive: 0.0303

Following part.

| Sequence | median seed-adjusted z-score |
| --- | --- |
| GAGCAAUGACUGUAAGUAUTT against SLC26A7 | inactive: 0.561 |
| ACUAACAUCCCAGACUUUATT against VWA1 | inactive: 0.289 |
| GAAUAUGUGGGCUAAGAAATT against COX6C | inactive: -0.0449 |
| GCAAAUAACAUAUGCUGUUTT against WFDC10A | inactive: -0.439 |
| GGAAGCUACUGAACCCUCATT against DGKQ | inactive: -0.0985 |
| CACUCGUUCCGGUUCCUUUTT against ZNF439 | inactive: -0.26 |
| ACGGCUACUUCAACGAGAATT against NPFFR1 | inactive: -0.613 |
| GGGAGAUCACGUUCCUGAATT against COMP | inactive: 0.331 |
| GAGAGAUACCAGACCAUCATT against RAB15 | inactive: -0.616 |
| CAAGUCACCUGUUACCUCATT against APOBEC3H | inactive: 0.256 |
| CCGAAAUUCAAUUAACUAUTT against BMPR2 | inactive: 0 |
| GAACAAUUGUAACGAAUGATT against PITPNB | inactive: 0.57 |
| CCUUCCCUCUACACCAUCATT against COPZ2 | active: -1.23 |
| AGAGAAUUCUCUUCCAACATT against GSX2 | inactive: -0.621 |
| GGCAACUCAUAGUACCGUATT against ATP13A3 | inactive: -0.619 |
| CGGGAGUUUUUGGAACUGATT against MMS19L | inactive: 0.898 |
| CUCUCUAUCUAAUAGGAUUTT against CDS2 | inactive: -0.811 |
| CCAUGCACUUUAUAUGGAUTT against DGAT2L3 | inactive: 0.247 |
| GAACAUCGUUAUAAGUUGATT against CNTN3 | inactive: 0.732 |
| GUUUCAUUGUAGUGGUUAATT against CXCR6 | inactive: 0.71 |
| CCACCUAUCAGAUUCGAAUTT against PIK3R4 | inactive: -0.502 |
| GGUUCUAUAGCAGACAAUATT against LOC81691 | inactive: -0.285 |

| Sequence | median seed-adjusted z-score |
| --- | --- |
| UCCACAUUCCUGUUUGUAATT against JUND | inactive: -0.334 |
| GCUCAUUCCAGGUCAAUCATT against MLL3 | inactive: -0.248 |
| GCAUGGAUCAUCUACAAAATT against UTP6 | inactive: -0.253 |
| CUACGACGGUGAUAUUGGATT against HDAC2 | active: -1.27 |
| AGACAAUAUUGGAAGAGGATT against DAB1 | inactive: 0.307 |
| GGAAAGCAAUAAAAGUUAUTT against TAAR6 | inactive: -0.124 |
| GCAUCUACGGGCUCAAGUATT against ZNF512B | inactive: 0.212 |
| AGAGGAUCCACACCACAGATT against ZNF324B | inactive: 0.176 |
| GGCUGGAAAGGUUACUUCATT against SENP3 | inactive: 0.543 |
| GGAAGAAGCUUGUACGUGATT against AKAP13 | inactive: 0.654 |
| GCUUGAGUUUUGUACGGUUTT against XRCC1 | inactive: 0.0431 |
| CCUGCGCCUUUGUGACAUUTT against TRMT2A | inactive: -0.588 |
| GGAUGGAGCAGGUUAAAGATT against HES2 | inactive: -0.186 |
| AAUCGAUCCUCAAUCCUUATT against ZNF676 | inactive: -0.499 |
| GCAUCUACCGGAUCCUGAUTT against DDX49 | inactive: 0.0816 |
| CCCAAAUUCUUGACCGAGATT against PCDHGA9 | inactive: -0.125 |
| AGCCGACAGUGGUGCACUATT against PLA2G15 | inactive: 0 |
| AGCUUACAGUGCAAAGACATT against MAPK8IP1 | inactive: 0.576 |
| GGAGCUUCGAAGAUGGAAATT against LARGE | inactive: -0.436 |
